No constants are given. Whether binding was seen depends on the method and setting. In cells and extracts the contact can be indirect. Some binding calls cover weakened binding; strength is not graded here. Sequences can lack the tags named with a protein.
T1: human p50RhoGAP, wild type (FLAG-p50RhoGAP or HA-p50RhoGAP) (human), Q07960
T1 chain: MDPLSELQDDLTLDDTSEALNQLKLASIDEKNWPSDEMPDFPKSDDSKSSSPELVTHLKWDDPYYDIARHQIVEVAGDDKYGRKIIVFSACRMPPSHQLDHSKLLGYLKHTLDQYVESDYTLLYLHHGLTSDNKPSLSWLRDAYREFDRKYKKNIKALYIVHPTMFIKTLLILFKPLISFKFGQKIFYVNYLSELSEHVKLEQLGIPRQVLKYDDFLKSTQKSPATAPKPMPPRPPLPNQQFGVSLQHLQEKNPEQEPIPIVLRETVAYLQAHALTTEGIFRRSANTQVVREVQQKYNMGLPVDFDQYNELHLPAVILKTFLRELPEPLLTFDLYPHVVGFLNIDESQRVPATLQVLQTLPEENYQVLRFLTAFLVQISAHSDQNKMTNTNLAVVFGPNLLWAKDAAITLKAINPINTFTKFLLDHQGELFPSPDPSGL

Protein sequences, listed by entry. Tags and fused reporters are not part of them.
UniProt P61586: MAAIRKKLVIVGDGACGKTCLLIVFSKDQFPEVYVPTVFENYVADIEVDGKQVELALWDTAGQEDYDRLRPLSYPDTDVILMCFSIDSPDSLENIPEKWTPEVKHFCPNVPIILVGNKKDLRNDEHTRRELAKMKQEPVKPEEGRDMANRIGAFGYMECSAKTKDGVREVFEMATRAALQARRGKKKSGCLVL

T2: FLAG-p50RhoGAP Y188D (human) (UniProt Q07960)
T2 sequence: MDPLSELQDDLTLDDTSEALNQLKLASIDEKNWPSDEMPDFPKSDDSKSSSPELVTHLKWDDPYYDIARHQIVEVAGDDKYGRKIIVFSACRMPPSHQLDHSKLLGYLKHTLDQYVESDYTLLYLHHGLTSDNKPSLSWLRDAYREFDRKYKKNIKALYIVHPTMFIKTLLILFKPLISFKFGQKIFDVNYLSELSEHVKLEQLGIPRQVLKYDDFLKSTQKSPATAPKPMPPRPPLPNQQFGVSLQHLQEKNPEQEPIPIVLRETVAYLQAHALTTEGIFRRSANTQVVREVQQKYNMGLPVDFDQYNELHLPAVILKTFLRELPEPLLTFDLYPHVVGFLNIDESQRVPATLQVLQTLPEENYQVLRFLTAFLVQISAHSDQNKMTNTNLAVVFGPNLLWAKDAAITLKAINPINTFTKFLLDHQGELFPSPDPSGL

T3: FLAG-p50RhoGAP Y188E (human) (UniProt Q07960)
T3 sequence: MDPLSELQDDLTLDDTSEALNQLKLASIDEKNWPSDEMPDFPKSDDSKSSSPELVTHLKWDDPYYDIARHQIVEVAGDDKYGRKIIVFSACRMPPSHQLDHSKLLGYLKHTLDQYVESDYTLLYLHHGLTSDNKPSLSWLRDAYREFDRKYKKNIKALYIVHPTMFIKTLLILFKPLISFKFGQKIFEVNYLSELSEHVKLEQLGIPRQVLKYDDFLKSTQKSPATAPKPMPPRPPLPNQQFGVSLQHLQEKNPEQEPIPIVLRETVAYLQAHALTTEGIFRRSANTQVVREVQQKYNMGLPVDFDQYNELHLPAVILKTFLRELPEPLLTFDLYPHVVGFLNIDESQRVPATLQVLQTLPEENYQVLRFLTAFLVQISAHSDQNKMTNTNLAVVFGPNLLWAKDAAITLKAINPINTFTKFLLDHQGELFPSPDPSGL


How the values were obtained:
HA-RhoA = HA-RhoA (UniProt P61586); assay: co-IP; 293T cells co-transfected, lysed in modified RIPA buffer; HA-tagged protein precipitated with anti-HA magnetic beads, FLAG-tagged partner detected by western blot
[1] = target: T1, human p50RhoGAP, wild type …; assay: co-IP; 293T cells co-transfected, lysed in modified RIPA buffer; FLAG-tagged protein precipitated with anti-FLAG M2 beads, HA-tagged partner detected by western blot; settings: remark: other sources report otherwise
[2] = target: T2, FLAG-p50RhoGAP Y188D (human); assay: as above
[3] = target: T3, FLAG-p50RhoGAP Y188E (human); assay: as above

Binder	binding (HA-RhoA)	further results
FLAG-p50RhoGAP Y188F (protein, UniProt Q07960 1-439) MDPLSELQDDLTLDDTSEALNQLKLASIDEKNWPSDEMPDFPKSDDSKSSSPELVTHLKWDDPYYDIARHQIVEVAGDDKYGRKIIVFSACRMPPSHQLDHSKLLGYLKHTLDQYVESDYTLLYLHHGLTSDNKPSLSWLRDAYREFDRKYKKNIKALYIVHPTMFIKTLLILFKPLISFKFGQKIFFVNYLSELSEHVKLEQLGIPRQVLKYDDFLKSTQKSPATAPKPMPPRPPLPNQQFGVSLQHLQEKNPEQEPIPIVLRETVAYLQAHALTTEGIFRRSANTQVVREVQQKYNMGLPVDFDQYNELHLPAVILKTFLRELPEPLLTFDLYPHVVGFLNIDESQRVPATLQVLQTLPEENYQVLRFLTAFLVQISAHSDQNKMTNTNLAVVFGPNLLWAKDAAITLKAINPINTFTKFLLDHQGELFPSPDPSGL	binds weakly	
human p50RhoGAP, wild type (FLAG-p50RhoGAP or HA-p50RhoGAP), Q07960 1-439 (protein) MDPLSELQDDLTLDDTSEALNQLKLASIDEKNWPSDEMPDFPKSDDSKSSSPELVTHLKWDDPYYDIARHQIVEVAGDDKYGRKIIVFSACRMPPSHQLDHSKLLGYLKHTLDQYVESDYTLLYLHHGLTSDNKPSLSWLRDAYREFDRKYKKNIKALYIVHPTMFIKTLLILFKPLISFKFGQKIFYVNYLSELSEHVKLEQLGIPRQVLKYDDFLKSTQKSPATAPKPMPPRPPLPNQQFGVSLQHLQEKNPEQEPIPIVLRETVAYLQAHALTTEGIFRRSANTQVVREVQQKYNMGLPVDFDQYNELHLPAVILKTFLRELPEPLLTFDLYPHVVGFLNIDESQRVPATLQVLQTLPEENYQVLRFLTAFLVQISAHSDQNKMTNTNLAVVFGPNLLWAKDAAITLKAINPINTFTKFLLDHQGELFPSPDPSGL		binding [1]: binds
FLAG-p50RhoGAP Y188E (protein, UniProt Q07960 1-439) MDPLSELQDDLTLDDTSEALNQLKLASIDEKNWPSDEMPDFPKSDDSKSSSPELVTHLKWDDPYYDIARHQIVEVAGDDKYGRKIIVFSACRMPPSHQLDHSKLLGYLKHTLDQYVESDYTLLYLHHGLTSDNKPSLSWLRDAYREFDRKYKKNIKALYIVHPTMFIKTLLILFKPLISFKFGQKIFEVNYLSELSEHVKLEQLGIPRQVLKYDDFLKSTQKSPATAPKPMPPRPPLPNQQFGVSLQHLQEKNPEQEPIPIVLRETVAYLQAHALTTEGIFRRSANTQVVREVQQKYNMGLPVDFDQYNELHLPAVILKTFLRELPEPLLTFDLYPHVVGFLNIDESQRVPATLQVLQTLPEENYQVLRFLTAFLVQISAHSDQNKMTNTNLAVVFGPNLLWAKDAAITLKAINPINTFTKFLLDHQGELFPSPDPSGL	binds	
FLAG-p50RhoGAP Y188D (protein, UniProt Q07960 1-439) MDPLSELQDDLTLDDTSEALNQLKLASIDEKNWPSDEMPDFPKSDDSKSSSPELVTHLKWDDPYYDIARHQIVEVAGDDKYGRKIIVFSACRMPPSHQLDHSKLLGYLKHTLDQYVESDYTLLYLHHGLTSDNKPSLSWLRDAYREFDRKYKKNIKALYIVHPTMFIKTLLILFKPLISFKFGQKIFDVNYLSELSEHVKLEQLGIPRQVLKYDDFLKSTQKSPATAPKPMPPRPPLPNQQFGVSLQHLQEKNPEQEPIPIVLRETVAYLQAHALTTEGIFRRSANTQVVREVQQKYNMGLPVDFDQYNELHLPAVILKTFLRELPEPLLTFDLYPHVVGFLNIDESQRVPATLQVLQTLPEENYQVLRFLTAFLVQISAHSDQNKMTNTNLAVVFGPNLLWAKDAAITLKAINPINTFTKFLLDHQGELFPSPDPSGL	binds	

More lines, main results first:

binding (HA-RhoA)	Binder	further results
binds	FLAG-p50RhoGAP F187P (protein, UniProt Q07960 1-439) MDPLSELQDDLTLDDTSEALNQLKLASIDEKNWPSDEMPDFPKSDDSKSSSPELVTHLKWDDPYYDIARHQIVEVAGDDKYGRKIIVFSACRMPPSHQLDHSKLLGYLKHTLDQYVESDYTLLYLHHGLTSDNKPSLSWLRDAYREFDRKYKKNIKALYIVHPTMFIKTLLILFKPLISFKFGQKIPYVNYLSELSEHVKLEQLGIPRQVLKYDDFLKSTQKSPATAPKPMPPRPPLPNQQFGVSLQHLQEKNPEQEPIPIVLRETVAYLQAHALTTEGIFRRSANTQVVREVQQKYNMGLPVDFDQYNELHLPAVILKTFLRELPEPLLTFDLYPHVVGFLNIDESQRVPATLQVLQTLPEENYQVLRFLTAFLVQISAHSDQNKMTNTNLAVVFGPNLLWAKDAAITLKAINPINTFTKFLLDHQGELFPSPDPSGL	
binds weakly	human p50RhoGAP, wild type (FLAG-p50RhoGAP or HA-p50RhoGAP) (protein, UniProt Q07960 1-439) MDPLSELQDDLTLDDTSEALNQLKLASIDEKNWPSDEMPDFPKSDDSKSSSPELVTHLKWDDPYYDIARHQIVEVAGDDKYGRKIIVFSACRMPPSHQLDHSKLLGYLKHTLDQYVESDYTLLYLHHGLTSDNKPSLSWLRDAYREFDRKYKKNIKALYIVHPTMFIKTLLILFKPLISFKFGQKIFYVNYLSELSEHVKLEQLGIPRQVLKYDDFLKSTQKSPATAPKPMPPRPPLPNQQFGVSLQHLQEKNPEQEPIPIVLRETVAYLQAHALTTEGIFRRSANTQVVREVQQKYNMGLPVDFDQYNELHLPAVILKTFLRELPEPLLTFDLYPHVVGFLNIDESQRVPATLQVLQTLPEENYQVLRFLTAFLVQISAHSDQNKMTNTNLAVVFGPNLLWAKDAAITLKAINPINTFTKFLLDHQGELFPSPDPSGL	binding [2]: binds; binding [3]: binds

— article PMC11090974, “Structural basis for the distinct roles of non-conserved Pro116 and conserved Tyr124 of BCH domain of yeast p50RhoGAP” (Cellular and Molecular Life Sciences: CMLS, 2024)
